Data: patent US8324199B2, “Pyridazine derivatives as factor xia inhibitors” (Bristol-Myers Squibb Company, priority 2008, dated 2012)
Some entries share one result that the patent states for a list of compounds.

Chains of the proteins cited; added tags and fusions are not shown. Residues count along the entry.
UniProt P03951, 19-387 partner limits assumed: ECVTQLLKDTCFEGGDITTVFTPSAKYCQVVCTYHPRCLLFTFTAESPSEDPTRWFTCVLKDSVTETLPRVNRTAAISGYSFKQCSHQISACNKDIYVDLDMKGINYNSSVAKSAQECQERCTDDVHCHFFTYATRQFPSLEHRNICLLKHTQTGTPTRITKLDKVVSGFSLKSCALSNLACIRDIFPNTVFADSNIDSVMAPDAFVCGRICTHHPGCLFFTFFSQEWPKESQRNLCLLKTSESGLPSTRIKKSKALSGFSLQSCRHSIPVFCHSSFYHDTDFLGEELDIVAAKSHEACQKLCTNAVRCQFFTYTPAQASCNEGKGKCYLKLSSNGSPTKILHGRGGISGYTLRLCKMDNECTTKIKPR
UniProt P03951, 388-625 limits assumed: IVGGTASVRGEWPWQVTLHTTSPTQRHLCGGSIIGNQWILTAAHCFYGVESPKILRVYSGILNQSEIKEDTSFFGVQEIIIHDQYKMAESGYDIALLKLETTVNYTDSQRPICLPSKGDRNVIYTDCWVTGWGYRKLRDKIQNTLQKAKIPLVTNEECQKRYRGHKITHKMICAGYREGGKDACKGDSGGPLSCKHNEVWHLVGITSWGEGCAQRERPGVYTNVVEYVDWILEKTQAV

Target: T1, purified human Factor XIa (Homo sapiens, UniProt P03951)
T1 construct: purchased Haematologic Technologies
Assay: Factor XIa assay (chromogenic substrate hydrolysis, Ki)
Format: biochemical
Conditions: tested in the Factor XIa assay described above

Row | Compound | Factor XIa inhibitory activity
1 | COC(=O)Nc1ccc(-c2cc([C@H](Cc3ccc(NC(=O)CN(C)C)cc3)NC(=O)/C=C/c3cc(Cl)ccc3-n3cnnn3)nnc2Cl)cc1 [Example 108, (S,E)-Methyl 4-(3-chloro-6-(1-(3-(5-chloro-2-(1 H-tetrazol-1-yl)phenyl)acrylamido)-2-(4-(2-(dimethylamino)acetamido)phenyl)ethyl)pyridazin-4-yl)phenylcarbamate] | having Factor XIa inhibitory activity
2 | CCC(=O)N1CCCC(C[C@H](NC(=O)/C=C/c2cc(Cl)ccc2-n2cnnn2)c2cc(-c3ccc(NC(=O)OC)cc3)cnn2)C1 (stereo partly drawn) [Example 111, Methyl 4-(6-((1S)-1-((E)-3-(5-chloro-2-(1 H-tetrazol-1-yl)phenyl)acrylamido)-2-(1-propionylpiperidin-3-yl)ethyl)pyridazin-4-yl)phenylcarbamate] | having Factor XIa inhibitory activity
3 | COC(=O)Nc1ccc(-c2cc([C@H](CC3CCCN(C(=O)C4CC4)C3)NC(=O)/C=C/c3cc(Cl)ccc3-n3cnnn3)nnc2Cl)cc1 (stereo partly drawn) [Example 112, Methyl 4-(3-chloro-6-((1S)-1-((E)-3-(5-chloro-2-(1 H-tetrazol-1-yl)phenyl)acrylamido)-2-(1-(cyclopropanecarbonyl)piperidin-3-yl)ethyl)pyridazin-4-yl)phenylcarbamate] | having Factor XIa inhibitory activity
4 | COC(=O)Nc1ccc(-c2cc([C@H](CC3CCN(C(=O)OCc4ccccc4)C3)NC(=O)/C=C/c3cc(Cl)ccc3-n3cnnn3)nnc2Cl)cc1 (stereo partly drawn) [Example 113, Benzyl 3-((S)-2-((E)-3-(5-chloro-2-(1 H-tetrazol-1-yl)phenyl)acrylamido)-2-(6-chloro-5-(4-(methoxycarbonylamino)phenyl)pyridazin-3-yl)ethyl)pyrrolidine-1-carboxylate] | having Factor XIa inhibitory activity
5 | COC(=O)Nc1ccc(-c2cc([C@H](CC3CCNC3)NC(=O)/C=C/c3cc(Cl)ccc3-n3cnnn3)nnc2Cl)cc1 (stereo partly drawn) [Example 114, Methyl 4-(3-chloro-6-((1S)-1-((E)-3-(5-chloro-2-(1 H-tetrazol-1-yl)phenyl)acrylamido)-2-(pyrrolidin-3-yl)ethyl)pyridazin-4-yl)phenylcarbamate] | having Factor XIa inhibitory activity
6 | COC(=O)Nc1ccc(-c2cc([C@H](CC3CCN(C(C)=O)C3)NC(=O)/C=C/c3cc(Cl)ccc3-n3cnnn3)nnc2Cl)cc1 (stereo partly drawn) [Example 115, Methyl 4-(6-((1S)-2-(1-acetylpyrrolidin-3-yl)-1-((E)-3-(5-chloro-2-(1 H-tetrazol-1-yl)phenyl)acrylamido)ethyl)-3-chloropyridazin-4-yl)phenylcarbamate] | having Factor XIa inhibitory activity
7 | CCN1CCC(C[C@H](NC(=O)/C=C/c2cc(Cl)ccc2-n2cnnn2)c2cc(-c3ccc(NC(=O)OC)cc3)c(Cl)nn2)C1 (stereo partly drawn) [Example 116, Methyl 4-(3-chloro-6-((1S)-1-((E)-3-(5-chloro-2-(1 H-tetrazol-1-yl)phenyl)acrylamido)-2-(1-ethylpyrrolidin-3-yl)ethyl)pyridazin-4-yl)phenylcarbamate] | having Factor XIa inhibitory activity
8 | COC(=O)Nc1ccc(-c2cc([C@H](CC3CCN(CC4CC4)C3)NC(=O)/C=C/c3cc(Cl)ccc3-n3cnnn3)nnc2Cl)cc1 (stereo partly drawn) [Example 119, Methyl 4-(3-chloro-6-((1S)-1-((E)-3-(5-chloro-2-(1 H-tetrazol-1-yl)phenyl)acrylamido)-2-(1-(cyclopropylmethyl)pyrrolidin-3-yl)ethyl)pyridazin-4-yl)phenylcarbamate] | having Factor XIa inhibitory activity
9 | COC(=O)Nc1ccc(-c2cc([C@H](CC(=O)N(C)C(C)C)NC(=O)/C=C/c3cc(Cl)ccc3-n3cnnn3)nnc2Cl)cc1 [Example 121, (S,E)-Methyl 4-(3-chloro-6-(1-(3-(5-chloro-2-(1H-tetrazol-1-yl)phenyl)acrylamido)-3-(isopropyl(methyl)amino)-3-oxopropyl)pyridazin-4-yl)phenylcarbamate] | having Factor XIa inhibitory activity
10 | COC(=O)Nc1ccc(-c2cc([C@H](CC(=O)N3CC[C@@H](O)C3)NC(=O)/C=C/c3cc(Cl)ccc3-n3cnnn3)nnc2Cl)cc1 [Example 122, Methyl 4-(3-chloro-6-((S)-1-((E)-3-(5-chloro-2-(1H-tetrazol-1-yl)phenyl)acrylamido)-3-((R)-3-hydroxypyrrolidin-1-yl)-3-oxopropyl)pyridazin-4-yl)phenylcarbamate] | having Factor XIa inhibitory activity
11 | COC(=O)Nc1ccc(-c2cc([C@H](Cc3cscn3)NC(=O)/C=C/c3cc(Cl)ccc3-n3cnnn3)nnc2Cl)cc1 [Example 123, (S,E)-Methyl 4-(3-chloro-6-(1-(3-(5-chloro-2-(1H-tetrazol-1-yl)phenyl)acrylamido)-2-(thiazol-4-yl)ethyl)pyridazin-4-yl)phenylcarbamate] | having Factor XIa inhibitory activity
12 | COC(=O)Nc1ccc(-c2cc([C@H](Cc3nc(C)cs3)NC(=O)/C=C/c3cc(Cl)ccc3-n3cnnn3)nnc2Cl)cc1 [Example 126, (S,E)-Methyl 4-(3-chloro-6-(1-(3-(5-chloro-2-(1H-tetrazol-1-yl)phenyl)acrylamido)-2-(4-methylthiazol-2-yl)ethyl)pyridazin-4-yl)phenylcarbamate] | having Factor XIa inhibitory activity
13 | COC(=O)Nc1ccc(-c2cc([C@H](Cc3nc(C)cs3)NC(=O)/C=C/c3c(-n4cnnn4)ccc(Cl)c3F)nnc2Cl)cc1 [Example 127, (S,E)-Methyl 4-(3-chloro-6-(1-(3-(3-chloro-2-fluoro-6-(1H-tetrazol-1-yl)phenyl)acrylamido)-2-(4-methylthiazol-2-yl)ethyl)pyridazin-4-yl)phenylcarbamate] | having Factor XIa inhibitory activity
14 | COC(=O)Nc1ccc(-c2cc([C@H](CCC3CCNCC3)NC(=O)/C=C/c3cc(Cl)ccc3-n3cnnn3)n[nH]c2=O)cc1 [Example 128, (S,E)-Methyl 4-(6-(1-(3-(5-chloro-2-(1H-tetrazol-1-yl)phenyl)acrylamido)-3-(piperidin-4-yl)propyl)-3-oxo-2,3-dihydropyridazin-4-yl)phenylcarbamate] | having Factor XIa inhibitory activity
15 | Nc1nc(-c2cc([C@H](Cc3ccccc3)NC(=O)/C=C/c3cc(Cl)ccc3-n3cnnn3)n[nH]c2=O)cs1 [Example 129, (S,E)-N-(1-(5-(2-Aminothiazol-4-yl)-6-oxo-1,6-dihydropyridazin-3-yl)-2-phenylethyl)-3-(5-chloro-2-(1H-tetrazol-1-yl)phenyl)acrylamide] | having Factor XIa inhibitory activity
16 | COC(=O)Nc1ccc(-c2cc([C@H](CCSC)NC(=O)/C=C/c3cc(Cl)ccc3-n3cnnn3)n[nH]c2=O)cc1 [Example 130, (S,E)-Methyl 4-(6-(1-(3-(5-chloro-2-(1H-tetrazol-1-yl)phenyl)acrylamido)-3-(methylthio)propyl)-3-oxo-2,3-dihydropyridazin-4-yl)phenylcarbamate] | having Factor XIa inhibitory activity
17 | COC(=O)Nc1ccc(-c2cc([C@H](Cc3cc([S+](C)[O-])n(C)n3)NC(=O)/C=C/c3cc(Cl)ccc3-n3cnnn3)n[nH]c2=O)cc1 (stereo partly drawn) [Example 132, (S,E)-Methyl 4-(6-(1-(3-(5-chloro-2-(1H-tetrazol-1-yl)phenyl)acrylamido)-2-(1-methyl-5-(methylsulfinyl)-1H-pyrazol-3-yl)ethyl)-3-oxo-2,3-dihydropyridazin-4-yl)phenylcarbamate] | having Factor XIa inhibitory activity
18 | COC(=O)Nc1ccc(-c2cc([C@H](Cc3cc(S(C)(=O)=O)n(C)n3)NC(=O)/C=C/c3cc(Cl)ccc3-n3cnnn3)n[nH]c2=O)cc1 [Example 133, (S,E)-Methyl 4-(6-(1-(3-(5-chloro-2-(1H-tetrazol-1-yl)phenyl)acrylamido)-2-(1-methyl-5-(methylsulfonyl)-1H-pyrazol-3-yl)ethyl)-3-oxo-2,3-dihydropyridazin-4-yl)phenylcarbamate] | having Factor XIa inhibitory activity
19 | COC(=O)Nc1ccc(-c2cc([C@H](Cc3cc(OC)n(C)n3)NC(=O)/C=C/c3cc(Cl)ccc3-n3cnnn3)n[nH]c2=O)cc1 [Example 134, (S,E)-Methyl 4-(6-(1-(3-(5-chloro-2-(1H-tetrazol-1-yl)phenyl)acrylamido)-2-(5-methoxy-1-methyl-1H-pyrazol-3-yl)ethyl)-3-oxo-2,3-dihydropyridazin-4-yl)phenylcarbamate] | having Factor XIa inhibitory activity
20 | COC(=O)Nc1ccc(-c2cc([C@H](Cc3cc4n(n3)CCCO4)NC(=O)/C=C/c3cc(Cl)ccc3-n3cnnn3)n[nH]c2=O)cc1 [Example 135, (S,E)-Methyl 4-(6-(1-(3-(5-chloro-2-(1H-tetrazol-1-yl)phenyl)acrylamido)-2-(6,7-dihydro-5H-pyrazolo [5,1-b][1,3]oxazin-2-yl)ethyl)-3-oxo-2,3-dihydropyridazin-4-yl)phenylcarbamate] | having Factor XIa inhibitory activity
21 | COC(=O)Nc1ccc(-c2cc([C@H](CC3CN(C(=O)OC(C)(C)C)C3)NC(=O)/C=C/c3cc(Cl)ccc3-n3cnnn3)n[nH]c2=O)cc1 [Example 136, (S,E)-tert-Butyl 3-(2-(3-(5-chloro-2-(1H-tetrazol-1-yl)phenyl)acrylamido)-2-(5-(4-(methoxycarbonylamino)phenyl)-6-oxo-1,6-dihydropyridazin-3-yl)ethyl)azetidine-1-carboxylate] | having Factor XIa inhibitory activity
22 | COC(=O)Nc1ccc(-c2cc([C@H](CC3CNC3)NC(=O)/C=C/c3cc(Cl)ccc3-n3cnnn3)n[nH]c2=O)cc1 [Example 137, (S,E)-Methyl 4-(6-(2-(azetidin-3-yl)-1-(3-(5-chloro-2-(1H-tetrazol-1-yl)phenyl)acrylamido)ethyl)-3-oxo-2,3-dihydropyridazin-4-yl)phenylcarbamate] | having Factor XIa inhibitory activity
